From paper PMC6901541

Amino acid sequences for entries named in this document (tags omitted). A change or cut given only in a name is not applied to a line headed by its entry.
UniProt A4I9I9: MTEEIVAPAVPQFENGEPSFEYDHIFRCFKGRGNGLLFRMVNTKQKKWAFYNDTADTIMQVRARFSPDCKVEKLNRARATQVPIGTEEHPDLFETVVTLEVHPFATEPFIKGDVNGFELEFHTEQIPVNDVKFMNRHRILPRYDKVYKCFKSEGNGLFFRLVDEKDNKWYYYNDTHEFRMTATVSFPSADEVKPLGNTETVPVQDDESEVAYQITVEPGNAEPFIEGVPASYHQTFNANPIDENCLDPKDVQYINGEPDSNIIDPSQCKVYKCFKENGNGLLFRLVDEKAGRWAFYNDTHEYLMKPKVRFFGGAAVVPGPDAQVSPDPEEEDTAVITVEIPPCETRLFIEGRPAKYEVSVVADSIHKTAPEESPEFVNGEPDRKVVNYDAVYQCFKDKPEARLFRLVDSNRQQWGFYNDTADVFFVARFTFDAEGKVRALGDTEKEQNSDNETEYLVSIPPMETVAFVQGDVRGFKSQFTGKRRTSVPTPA

Experiments:
[1] = target: CDPK1-HA (HA-tagged wild-type L. infantum protein kinase CDPK1, LinJ.33.1810) (L. infantum) (UniProt A4I967); assay: affinity purification with mass spectrometry; anti-HA immunoprecipitate of CDPK1-HA after a non-radioactive immunocomplex kinase reaction, run on 12% SDS-PAGE; bands parallel to the radioactive signals cut out and analysed by LC-MS/MS
[2] = target: CDPK1-HA (HA-tagged wild-type L. infantum protein kinase CDPK1, LinJ.33.1810) (L. infantum) (UniProt A4I967); assay: affinity purification with mass spectrometry; lysate of mid-log L. infantum expressing CDPK1-HA on anti-HA magnetic beads (4 °C, 4 h), on-bead trypsin digest, LC-MS/MS; SAINT (AvP > 0.8) against HA-PTR1 and HA-DHFR-TS control immunoprecipitates; three biological replicates

ARM56 (LinJ.34.0210), endogenous (from UniProt A4I9I9)
binding [1]: binds | binding [2]: binds

Results are given in words; binding and its absence hold for the method and conditions named. Binding seen in cells or lysates may run through a third protein. Here binding means that the protein was enriched with, or labelled near, the bait; the list need not be complete.
